Measurements as given in patent publication US12102620B2, “Combination therapy for the treatment of mastocytosis” (Deciphera Pharmaceuticals, LLC, priority 2018, dated 2024).
“Also recorded” adds a separate entry of the source. For at least one compound, name, drawing or mass did not settle the structure.

Assays:
Format in all cases: cell-based
[1] = test system: N-ras G12D-transfected HMC1.2 cells; assay: Colony outgrowth after drug removal, N-ras G12D transfected cells; conditions: all concentrations, 5 days after drug removal
Text: (§1) Drug treatments were removed and colony outgrowth of viable cells was monitored after 5 or 13 additional days.
(§2) Drug treatments were removed and colony outgrowth of viable cells was monitored after 5 or 10 additional days.

[2] = test system: EV-transfected HMC1.2 mast cells; assay: Colony outgrowth after drug removal, empty vector transfected cells; conditions: all concentrations, 5 days after drug removal
Text: as §1, §2

[3] = test system: HMC1.2 mast cells (KIT D816V); assay: Colony outgrowth in soft agar after drug removal; conditions: all concentrations, 10 days treatment, 5 days after drug removal
Text: Drug treatments were removed and colony outgrowth of viable cells was monitored after 5 additional days.

`CC(=O)Nc1cccc(-n2c(=O)n(C3CC3)c(=O)c3c(Nc4ccc(I)cc4F)n(C)c(=O)c(C)c32)c1` [trametinib] was tested, and the “colony outgrowth, single agent” value [1] was “colony outgrowth at all concentrations; also recorded: eradication was not observed”, the “colony outgrowth, single agent” value [2] was “colony outgrowth at all concentrations; also recorded: eradication was not observed” and the “colony outgrowth, single agent” value [3] was “colony outgrowth at all concentrations; also recorded: Eradication was not observed”.
